# PubChem BioAssay (EPA / NIEHS)
# By UniProt entry, the sequences of proteins in these tests, tags left out.
# UniProt P04637, whole entry, looked up: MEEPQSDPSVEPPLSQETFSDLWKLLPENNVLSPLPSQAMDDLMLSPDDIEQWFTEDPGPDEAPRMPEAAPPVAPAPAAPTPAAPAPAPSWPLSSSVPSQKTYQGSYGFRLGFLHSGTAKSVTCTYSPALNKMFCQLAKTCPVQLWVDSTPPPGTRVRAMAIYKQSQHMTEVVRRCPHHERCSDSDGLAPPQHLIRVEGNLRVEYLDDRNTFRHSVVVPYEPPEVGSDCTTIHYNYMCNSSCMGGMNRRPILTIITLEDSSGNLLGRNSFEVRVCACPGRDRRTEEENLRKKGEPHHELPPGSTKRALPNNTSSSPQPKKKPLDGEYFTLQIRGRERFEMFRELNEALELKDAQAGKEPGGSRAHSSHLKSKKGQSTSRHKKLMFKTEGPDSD
# “And” between values parts separate entries of the source, which are not always exact repeats. Equal entries are not always repeated. The inconclusive results got no clear call from the source; some entries with a clear call stand among them for comparison. Potencies beside an inconclusive call are fits to weak or partial responses and may not hold up. The source made the active and inactive calls. How the source made its calls: active means hit-call score of the fitted dose curve at least 0.9, where 1 is the maximum; inconclusive means response in the unintended direction; inactive means score below 0.9.
# Assays:
# [1] = Tanguay_ZF_120hpf_JAW_legacy: (Legacy) Oregon State University Tanguay Lab 120 Hour Post-fertilization zebrafish Assay for Jaw Malformation (AID 2283638);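 further: active means more embryos with jaw malformation than DMSO controls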
# How it was run: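 Dechorionated Tropical 5D wild-type zebrafish embryos, one per well, exposed statically from 6 hpf to 120 hpf at 28C in 0.64% DMSO. Jaw malformation was scored by brightfield microscopy as present or absent. It was not scored in dead embryos.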
# [2] = TOX21_p53_BLA_p4_viability: Viability Assessment in the Tox21 HCT-116 p53 Agonism Beta-lactamase Assay, Phase 4 (AID 2283597);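 further: hits lower the luminescence signal meaning cytotoxicity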
# How it was run: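 HCT-116 p53-bla cells, 4000/well, dosed after 5 h attachment and incubated 16 h at 37 °C, 5% CO2. Viability from CellTiter-Glo ATP luminescence after 30 min at room temperature, taken after the beta-lactamase read; loss of signal indicates cytotoxicity.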
# [3] = TOX21_p53_BLA_p5_viability: Viability Assessment in the Tox21 HCT-116 p53 Agonism Beta-lactamase Assay, Phase 5 (AID 2283600)
# How it was run: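 HCT-116 p53 beta-lactamase reporter cells, 4000/well, were exposed to compound (pin transfer, 217-fold dilution) for 16 hours at 37C. Cellular ATP was read by CellTiter-Glo luminescence after 30 min at room temperature.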
# [4] = molecular target: Cellular tumor antigen p53 (Homo sapiens) (UniProt P04637); assay: TOX21_p53_BLA_p4_ratio: Tox21 HCT-116 p53 Agonism Beta-lactamase Assay, Ratio, Phase 4 (AID 2283601)
# How it was run: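 HCT116 cells carrying an inducible beta-lactamase reporter were plated at 4000 cells/well, rested 5 h, then exposed to compounds in DMSO (217-fold dilution) for 16 h at 37C. CCF4-AM substrate was loaded 2 h at room temperature; 460/530 nm emission ratio scored gain-of-signal versus DMSO.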
# [5] = Tanguay_ZF_120hpf_OTIC_legacy: (Legacy) Oregon State University Tanguay Lab 120 Hour Post-fertilization zebrafish Assay for Otic Vesicle Malformation (AID 2283639)
# How it was run: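 Embryos from 5D wild-type adults exposed in plates; DMSO 0.64% v/v final. Sealed, light-protected, 28C, static to 120 hpf. Otic vesicle malformation recorded as binary endpoint; gain-of-signal fitted vs DMSO.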
# [6] = molecular target: Cellular tumor antigen p53 (Homo sapiens) (UniProt P04637); assay: TOX21_p53_BLA_p5_ratio: Tox21 HCT-116 p53 Agonism Beta-lactamase Assay, Ratio, Phase 5 (AID 2283599)
# How it was run: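 HCT-116 cells carrying a p53-inducible beta-lactamase reporter were seeded at 4000 cells/well and dosed after 5 h with compound in DMSO (217-fold dilution). After 16 h at 37C, CCF4-AM substrate was added for 2 h, and the 460/530 nm emission ratio was scored as gain-of-signal versus DMSO.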
# [7] = Tanguay_ZF_120hpf_AXIS_legacy: (Legacy) Oregon State University Tanguay Lab 120 Hour Post-fertilization zebrafish Assay for Body Axis Malformation (AID 2283635);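 further: potency for an increased fraction of larvae scored with body axis malformation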
# How it was run: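 Dechorionated wild-type Tropical 5D zebrafish embryos, one per well, statically exposed from 6 hpf to 120 hpf at 28C in 0.64% DMSO final. Body axis malformation scored present/absent by brightfield microscopy at 120 hpf; dead embryos excluded.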
# [8] = Tanguay_ZF_120hpf_EYE_legacy: (Legacy) Oregon State University Tanguay Lab 120 Hour Post-fertilization zebrafish Assay for Eye Malformation (AID 2283636);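 further: binary presence or absence of eye malformation scored by brightfield in 120 hpf larvae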
# How it was run: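 Dechorionated wild-type Tropical 5D zebrafish embryos were exposed statically from 6 hpf, one per well, to 120 hpf at 28C in sealed, foil-covered plates with 0.64% DMSO. Eye malformation was scored present/absent by brightfield microscopy against DMSO controls.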
compound,measurement,setting,value
O=C1CCC(N2C(=O)c3ccccc3C2=O)C(=O)N1 (stereo unspecified),AC50,[1],inconclusive: 3.41 µM
OB(O)O,AC50,[2],inconclusive: 46.1 µM and inconclusive: 44.5 µM
same,outcome,[2],inactive
same,AC50,[3],inconclusive: 84.7 µM and inconclusive: 44.5 µM and inconclusive: 30.5 nM
same,outcome,[4],inactive
same,AC50,[5],inconclusive: 26 µM
C/C=C(\C)C(=O)OCC/C=C\CC,AC50,[2],inconclusive: 46.1 µM
same,AC50,[6],inconclusive: 46.1 µM
CCCCC(CC)CN1C(=O)C2C3C=CC(C3)C2C1=O (stereo unspecified),AC50,[2],active: 73.3 µM
same,outcome,[6],inactive
CCCCOC(=O)[C@H](C)O,AC50,[2],inconclusive: 72.5 µM
same,outcome,[6],inactive
CC12CCC(C1)C(C)(C)C2O (stereo unspecified),AC50,[2],inconclusive: 46.1 µM
same,AC50,[6],inconclusive: 46.1 µM
CCCCOCCOCCOC(C)=O,AC50,[2],inconclusive: 17.5 µM
same,AC50,[6],inconclusive: 45.2 µM
CCOC(=O)CN[C@@H](C(=O)N1CC[C@H]1C(=O)NCc1ccc(/C(N)=N/O)cc1)C1CCCCC1,outcome,[2],inactive
same,AC50,[6],inconclusive: 23 µM
CC(=O)CC(C)C,outcome,[2],inactive
same,outcome,[6],inactive
O=c1cc[nH]c(=S)[nH]1,AC50,[2],inconclusive: 47.2 µM and inconclusive: 46.3 µM
same,outcome,[2],inactive
same,AC50,[3],inconclusive: 47.2 µM
same,outcome,[3],inactive
same,AC50,[4],inconclusive: 46.3 µM and inconclusive: 23 µM
COS(=O)(=O)O,AC50,[2],inconclusive: 46 µM
same,AC50,[6],inconclusive: 46 µM
O=C1CCCCCN1,AC50,[2],inconclusive: 46.1 µM
same,outcome,[2],inactive
same,AC50,[7],inconclusive: 31.8 µM
same,AC50,[8],inconclusive: 171 µM

# Exported bar-delimited: part of the list above
compound | measurement | setting | value
O=c1cc[nH]c(=S)[nH]1 | AC50 | [2] | inconclusive: 47.2 µM and inconclusive: 46.3 µM
same | outcome | [2] | inactive
